Measurements reported in PubChem BioAssay AID1259405 (NCATS, 2018).
Test: 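Mouse-designed siRNAs used to find CHO productivity engineering targets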 (primary screen). System: Chinese hamster CHO-K1 ovary cells with stable secreted eGFP expression. Knock-down reagent: single siRNA against mouse genes, 0.8 pmol siRNA per well (2 µl of 400 nM stock). Duration: 3 days. Read-out: 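Percent of the per-plate non-targeting control median for intracellular GFP per well by laser scanning cytometry and for cell viability by ATP luminescence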. Direction: GFP, % of control: higher = more GFP per well, higher productivity; viability (ATP), % of control: higher = more viable cells (more ATP). Call rule: 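Called active when intracellular GFP, relative to negative control, is at or above 120%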.
Shown is an unselected part of about 50,000 deposited reagents. About 4,000 of them (8%) were called active. 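Mouse siRNA library applied to hamster cells; one well for each siRNA.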 Reagents against one gene are numbered here.

no.	gene knocked down	siRNA no.	GFP, % of control	viability (ATP), % of control	activity call
1	Cnot4	1	78.5	62.7	inactive
2	Cnot4	2	65.5	65.6	inactive
3	Cnot4	3	114	109	inactive
4	St6galnac5	1	110	112	inactive
5	St6galnac5	2	82.6	87.8	inactive
6	St6galnac5	3	0.00935	81.7	inactive
7	Ncoa3	1	140	87.8	active
8	Ncoa3	2	56.1	65.6	inactive
9	Ncoa3	3	111	99.9	inactive
10	Sobp	1	116	71.7	inactive
11	Sobp	2	77.2	90.6	inactive
12	Sobp	3	152	131	active
13	Sp140l2	1	44.6	61.1	inactive
14	Sp140l2	2	127	78.6	active
15	Sp140l2	3	170	116	active
16	Pdxk	1	94.6	64.3	inactive
17	Pura	1	133	81.9	active
18	Pura	2	83.5	93	inactive
19	Cd5	1	101	74.9	inactive
20	Cd5	2	65.5	60.5	inactive
21	Cd5	3	72.5	41.4	inactive
22	Dpys	1	132	122	active
23	Dpys	2	84.3	61.2	inactive
24	Dpys	3	70	90.6	inactive
25	Snx15	1	144	79.9	active
26	Snx15	2	75.4	60	inactive
27	Snx15	3	45.2	48.9	inactive
28	Muc2	1	63.7	50.6	inactive
29	Muc2	2	72.2	71.5	inactive
30	Muc2	3	16	32.8	inactive
31	Tnrc6b	1	47.8	62.5	inactive
32	Tnrc6b	2	76.2	68.7	inactive
33	Tnrc6b	3	86.7	84.6	inactive
34	Lsg1	1	116	104	inactive
35	Lsg1	2	68	82.5	inactive
36	Lsg1	3	46.3	52.1	inactive
37	Or5an6	1	60.7	66.6	inactive
38	Or5an6	2	74.5	82.7	inactive
39	Or5an6	3	48.4	40.8	inactive
40	Eif3f	1	91.5	40.9	inactive
41	Eif3f	2	48.1	45.6	inactive
42	Eif3f	3	28.8	30.6	inactive
43	Dhx58	1	72.3	56.6	inactive
44	Dhx58	2	121	73.2	active
45	Dhx58	3	63	34.1	inactive
46	Fbxl18	1	73.2	91.2	inactive
47	Fbxl18	2	72.8	65.2	inactive
48	Fbxl18	3	130	69.3	active
49	Ccdc91	1	188	35	active
50	Ccdc91	2	69	135	inactive
51	Ccdc91	3	94.5	70	inactive
52	Poglut2	1	54.9	57.3	inactive
53	Poglut2	2	72.7	51.9	inactive
54	Poglut2	3	61.1	77.1	inactive
55	Htr6	1	99.3	54.3	inactive
56	Htr6	2	52.3	51.4	inactive
57	Htr6	3	71.4	60.1	inactive

Copied from above for reference:
no.	gene knocked down	siRNA no.	GFP, % of control	viability (ATP), % of control	activity call
30	Muc2	3	16	32.8	inactive
31	Tnrc6b	1	47.8	62.5	inactive
32	Tnrc6b	2	76.2	68.7	inactive
33	Tnrc6b	3	86.7	84.6	inactive
34	Lsg1	1	116	104	inactive
35	Lsg1	2	68	82.5	inactive
36	Lsg1	3	46.3	52.1	inactive
37	Or5an6	1	60.7	66.6	inactive
